Measurements: patent US12263177B2, “Biologically active ganoderma lucidum compounds and synthesis of anticancer derivatives; ergosterol peroxide probes for cellular localization” (priority 2019, dated 2025)
Entries after “also recorded” stand apart in the source; their conditions may differ.

Key:
HMEC = assay: Cytotoxicity of EP probes via CTG assay, normal cells; assay type: cell-based; conditions: therapeutic index, HMEC EC50 / SUM149 EC50
MDA-MB-231 [1] = assay: Washout experiment (intracellular accumulation); assay type: cell-based, human; conditions: 1 μM
MDA-MB-231 [2] = assay: Co-localization studies with organelle trackers; assay type: cell-based, human

| Compound | TI(HMEC/SUM149) (HMEC) | also measured |
| --- | --- | --- |
| CC(C)C(C)C=CC(C)C1CCC2C1(C)CCC1C23C=CC2(CC(=O)CCC12C)OO3 (stereo not drawn) [3a] | >3 |  |
| CC(C)C(C)C=CC(C)C1CCC2C1(C)CCC1C23C=CC2(CC(OC(=O)CCl)CCC12C)OO3 (stereo not drawn) [3c] | >4 |  |
| CC(C)C(C)C=CC(C)C1CCC2C1(C)CCC1C23C=CC2(CC(OC(=O)CN=[N+]=[N-])CCC12C)OO3 (stereo not drawn) [3d] | >2 |  |
| C#CCOC1CCC2(C)C3CCC4(C)C(C(C)C=CC(C)C(C)C)CCC4C34C=CC2(C1)OO4 (stereo not drawn) [3e] | >2 |  |
| CCOP(=O)(COC1CCC2(C)C3CCC4(C)C(C(C)C=CC(C)C(C)C)CCC4C34C=CC2(C1)OO4)OCC (stereo not drawn) [3f] | >4 |  |
| CC(C)C(C)C=CC(C)C1CCC2C1(C)CCC1C23C=CC2(CC(OCP(=O)(O)O)CCC12C)OO3 (stereo not drawn) [3g] | >4 |  |
| CC(C)C(C)C=CC(C)C1CCC2C1(C)CCC1C23C=CC2(CC(OP(=O)([O-])OCC[N+](C)(C)C)CCC12C)OO3 (stereo not drawn) [3h] | >4 |  |
| CC(C)C(C)C=CC(C)C1CCC2C1(C)CCC1C23C=CC2(CC(OC(=O)CCCC(=O)O)CCC12C)OO3 (stereo not drawn) [3i] | >4 |  |
| C#CCCCC(=O)OC1CCC2(C)C3CCC4(C)C(C(C)C=CC(C)C(C)C)CCC4C34C=CC2(C1)OO4 (stereo not drawn) [3j] | >4 |  |
| CC(C)C(C)C=CC(C)C1CCC2C1(C)CCC1C23C=CC2(CC(OC(=O)CCCCC4SCC5NC(=O)NC54)CCC12C)OO3 (stereo not drawn) [3k] | >6 |  |
| CC(C)C(C)C=CC(C)C1CCC2C1(C)CCC1C23C=CC2(CC(OC(=O)Cn4cc(CNC(=O)c5ccc6c(c5)C(=O)OC65c6ccc(N(C)C)cc6Oc6cc(N(C)C)ccc65)nn4)CCC12C)OO3 (stereo not drawn) [3l] | >1 | intracellular accumulation after washout / cell staining (MDA-MB-231 [1]): did not accumulate in the cell at all; also recorded: no cell staining was observed |
| Cc1cc(C)n2c1C=C1C=CC(CCC(=O)OC3CCC4(C)C5CCC6(C)C(C(C)C=CC(C)C(C)C)CCC6C56C=CC4(C3)OO6)=[N+]1[B-]2(F)F (stereo not drawn) [3m] | >6 | intracellular accumulation after washout / cell staining (MDA-MB-231 [1]): Fluorescence of compound 3m is observed after washing; also recorded: distributes across the cytosol; co-localization with peroxisome (MDA-MB-231 [2]; Ruby-red peroxisome stably transfected cells): no co-localization was observed; co-localization with endoplasmic reticulum (MDA-MB-231 [2]; blue/white ER tracker, consistent in MDA-MB-231 and SUM-149): good co-localization was recorded; co-localization with Golgi (MDA-MB-231 [2]; golgi-RFP cells): The same observation; co-localization with lysosome (MDA-MB-231 [2]; lysotracker): no co-localization was recorded; co-localization with mitochondria (MDA-MB-231 [2]; mitotracker): no overlap was detected |
| COC(=O)CCc1ccc2n1[B-](F)(F)[N+]1=C(C)C=C(C)C1=C2 [BodipFl methyl ester, reference compound] |  | intracellular accumulation after washout / cell staining (MDA-MB-231 [1]): no fluorescence of the control compound is observed after washing |
| CCCCCOC(=O)Nc1nc(=O)n([C@@H]2O[C@H](C)[C@@H](O)[C@H]2O)cc1F [Capecitabin, reference compound] | >2 |  |
| COc1cccc2c1C(=O)c1c(O)c3c(c(O)c1C2=O)C[C@@](O)(C(=O)CO)C[C@@H]3O[C@H]1C[C@H](N)[C@H](O)[C@H](C)O1 [Doxorubicin, reference compound] | >11 |  |
| CC(C)[C@@H](C)/C=C/[C@@H](C)[C@H]1CC[C@@H]2[C@]1(C)CC[C@H]1[C@]23C=C[C@]2(C[C@@H](O)CC[C@]12C)OO3 [EP, ergosterol peroxide] | >3 |  |
| CC(=O)O[C@H]1C(=O)[C@@]2(C)[C@H]([C@H](OC(=O)c3ccccc3)[C@]3(O)C[C@H](OC(=O)[C@H](O)[C@@H](NC(=O)c4ccccc4)c4ccccc4)C(C)=C1C3(C)C)[C@]1(OC(C)=O)CO[C@@H]1C[C@@H]2O [Taxol, reference compound] | >800 |  |
